For at least one entry, the source does not settle the construct or the ends of the probe. At least one result comes from cells or an extract, where the contact may be indirect.

Sequences of proteins named here, by UniProt entry; tags and fusion partners are left off.
UniProt P42227, whole entry: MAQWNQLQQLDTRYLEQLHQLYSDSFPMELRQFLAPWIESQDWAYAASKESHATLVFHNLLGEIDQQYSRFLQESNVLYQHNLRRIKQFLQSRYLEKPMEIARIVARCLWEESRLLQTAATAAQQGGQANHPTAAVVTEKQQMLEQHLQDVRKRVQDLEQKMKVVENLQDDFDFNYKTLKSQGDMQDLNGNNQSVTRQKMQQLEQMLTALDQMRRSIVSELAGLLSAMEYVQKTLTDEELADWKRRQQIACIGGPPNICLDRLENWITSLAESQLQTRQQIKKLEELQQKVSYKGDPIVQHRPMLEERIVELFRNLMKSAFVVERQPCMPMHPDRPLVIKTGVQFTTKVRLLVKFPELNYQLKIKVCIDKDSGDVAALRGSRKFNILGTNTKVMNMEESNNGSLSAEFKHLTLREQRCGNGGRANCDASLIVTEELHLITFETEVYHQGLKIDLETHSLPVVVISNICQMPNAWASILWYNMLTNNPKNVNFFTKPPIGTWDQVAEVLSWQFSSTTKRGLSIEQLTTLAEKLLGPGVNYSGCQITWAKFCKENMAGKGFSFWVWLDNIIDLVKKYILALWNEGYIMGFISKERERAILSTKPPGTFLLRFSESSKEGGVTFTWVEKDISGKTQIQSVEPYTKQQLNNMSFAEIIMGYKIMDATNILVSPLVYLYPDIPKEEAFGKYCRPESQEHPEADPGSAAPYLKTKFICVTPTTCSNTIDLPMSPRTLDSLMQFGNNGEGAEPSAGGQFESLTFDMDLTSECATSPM

The target in the series is Stat3alpha-FLAG (S3WT) (mouse) (UniProt P42227). In words: EMSA. The note with it: nuclear extract of S3WT6 cells, serum-starved 2 days, higher than parental, band eliminated by excess unlabeled probe; Panomics Gel-Shift kit binding buffer (composition not given), 3 ug nuclear extract, 10 ng biotin probe, 1 ug poly(dI-dC), 10 ul, 40 min at 18 C; 6% native PAGE, 0.5x TBE; protein in an extract; protein details: C-terminal FLAG; label: biotin. (In EMSA bound probe runs differently from free probe, usually more slowly.)

Consider “GATCCTTCTGGGAATTCCTAGATC (double strand) [Stat3 response element probe (c-fos promoter)]”, for which the binding result is on record as “binds”.
